These are yes or no findings as the source states them, for the method shown. Some entries that bind do so weakly or less than the wild type.

The target of experiment [1] is A. baumannii FtsZ (A. baumannii) (UniProt V5V8B6). In words: 90°-angle light scattering (polymerization assay); negative control: 10 µM AbFtsZ added to 250 µM GDP in place of GTP, DMSO vehicle; 50 mM Tris-HCl (pH 7.6), 50 mM KCl, 5 mM Mg(CH3COO)2; 25 °C; both purified.
The target is the same in experiment [2]. Kind of experiment: 90°-angle light scattering (polymerization assay); 10 µM AbFtsZ added to 250 µM GTP with DMSO vehicle, 20 µM RUP7 or 40 µM RUP7; 50 mM Tris-HCl (pH 7.6), 50 mM KCl, 5 mM Mg(CH3COO)2; 25 °C; second-order light scattering recorded over 480 s; both purified.

B1: A. baumannii FtsZ (protein, UniProt V5V8B6 1-391)
chain: MASFEFIEDELNDGNGQARFTVFGVGGGGGNAVQHMVQSDIQGVKFVCANTDKQALDCMNAPFKIQLGEQSTRGLGAGANPEVGQVAAEESREIIRQHLEGTDMVFVTAGMGGGTGTGAAPVVAEVAKEMGILTVGVVTTPFNFEGRRRQKSAERGIEALEAHVDSLIIIPNQRLLSVYGDISMKDAYKKADDVLLNAVRSIFDLVVNRGHINLDFADLKTAMSTRGYAMMGAGLGRGEDRARQAAEQAIRSPLLDNVNIINAKGVLINITGGDDITLRETEIITDVVNQIVDLDEGEIFYGTVFDPDARDELRVTVIATGLTRNAADAEPRKRNTVSHTSTQSAQSVDEDDVPAINKRQNAENDVNNAPSSTPRSSPMSIQDYLKNQQRK
B1: the figures for the binding result in experiment [1] and in experiment [2] were “no binding (condition: with 250 µM GDP in place of GTP)” and “binds”, respectively.
